# In PubChem BioAssay AID651564 (Sanford-Burnham Center for Chemical Genomics, 2012):
# What follows is the remainder of the data, with few or none of the hits. Activity calls are given as the source filed them. Cut-off read from the data, not from the text of the source: active = IC50 below about 80 µM; inactive = the rest.
# Test: isolated mitochondria fluorescence counter-assay – biochemical, uHTS hits, counter-screen for MPTP inhibitor project, dose response (AID 651564)
# Settings: isolated mitochondria counterscreen, fluorescence read-out
smiles,measurement,value
CNCCCC12CCC(c3ccccc31)c1ccccc12,IC50,inactive: > 80 µM
